Reference: article PMC12370193, “An L-fucose-responsive transcription factor cross-regulates the expression of a diverse array of carbohydrate-active enzymes in Trichoderma reesei” (PLOS Genetics, 2025)

System: T1, GST-FUR1BD (Trichoderma reesei (QMP, derived from QM9414))
T1 sequence: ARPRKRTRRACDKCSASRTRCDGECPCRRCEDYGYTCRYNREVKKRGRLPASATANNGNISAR
Assay: EMSA
Settings: 0.8 ug protein, 20 fmol probe; LightShift Chemiluminescent EMSA kit binding buffer (composition, salt, pH not given), 15 C, 25 min; 6% native PAGE at 4 C; recombinant protein; protein details: N-terminal GST (pGEX-4T-1); label: biotin

Sequence | binding result
CCCCATTATACGGCTAAACTATTTACCAG (double strand) | no binding
CCCCATTATACCCGTCGGCTATTTACCAG (double strand) [fdh1 upstream wild-type probe] | binds

Construct, isoform or probe ends are uncertain for at least one entry. A negative result means that nothing was seen under these conditions. Tags and fusion partners may be left off the protein sequences shown.
